# Test results as given in paper PMC8170441.
# By UniProt entry, the sequences of proteins in these tests, tags left out. Where a name states a change or a piece, a line headed by the entry shows the natural chain unless it says otherwise. Chains listed by the source or under a name are the forms on record and can include a tag or linker.
# p97-E578Q-Strep (dominant-negative, substrate-trapping p97 variant) (P55072, form named): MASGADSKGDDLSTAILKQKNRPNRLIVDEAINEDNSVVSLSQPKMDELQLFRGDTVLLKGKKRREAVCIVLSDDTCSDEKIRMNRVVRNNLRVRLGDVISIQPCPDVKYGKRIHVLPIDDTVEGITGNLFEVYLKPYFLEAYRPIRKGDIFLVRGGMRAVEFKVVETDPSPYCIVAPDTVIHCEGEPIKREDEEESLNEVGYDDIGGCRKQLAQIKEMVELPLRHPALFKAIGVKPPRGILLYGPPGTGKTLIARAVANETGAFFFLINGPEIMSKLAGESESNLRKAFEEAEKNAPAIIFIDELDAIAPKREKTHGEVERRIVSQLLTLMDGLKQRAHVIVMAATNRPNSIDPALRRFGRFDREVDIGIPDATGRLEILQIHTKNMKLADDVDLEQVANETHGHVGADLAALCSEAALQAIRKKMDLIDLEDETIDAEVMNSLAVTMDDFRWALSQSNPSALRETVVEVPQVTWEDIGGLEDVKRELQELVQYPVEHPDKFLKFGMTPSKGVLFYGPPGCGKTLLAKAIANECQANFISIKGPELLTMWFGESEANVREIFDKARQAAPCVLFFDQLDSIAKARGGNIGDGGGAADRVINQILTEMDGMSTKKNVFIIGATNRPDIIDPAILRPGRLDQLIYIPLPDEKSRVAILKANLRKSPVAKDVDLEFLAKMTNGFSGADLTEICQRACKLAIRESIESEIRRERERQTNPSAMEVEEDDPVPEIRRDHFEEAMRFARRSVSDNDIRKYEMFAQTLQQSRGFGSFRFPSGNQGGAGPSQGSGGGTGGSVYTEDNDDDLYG
# UniProt O60934: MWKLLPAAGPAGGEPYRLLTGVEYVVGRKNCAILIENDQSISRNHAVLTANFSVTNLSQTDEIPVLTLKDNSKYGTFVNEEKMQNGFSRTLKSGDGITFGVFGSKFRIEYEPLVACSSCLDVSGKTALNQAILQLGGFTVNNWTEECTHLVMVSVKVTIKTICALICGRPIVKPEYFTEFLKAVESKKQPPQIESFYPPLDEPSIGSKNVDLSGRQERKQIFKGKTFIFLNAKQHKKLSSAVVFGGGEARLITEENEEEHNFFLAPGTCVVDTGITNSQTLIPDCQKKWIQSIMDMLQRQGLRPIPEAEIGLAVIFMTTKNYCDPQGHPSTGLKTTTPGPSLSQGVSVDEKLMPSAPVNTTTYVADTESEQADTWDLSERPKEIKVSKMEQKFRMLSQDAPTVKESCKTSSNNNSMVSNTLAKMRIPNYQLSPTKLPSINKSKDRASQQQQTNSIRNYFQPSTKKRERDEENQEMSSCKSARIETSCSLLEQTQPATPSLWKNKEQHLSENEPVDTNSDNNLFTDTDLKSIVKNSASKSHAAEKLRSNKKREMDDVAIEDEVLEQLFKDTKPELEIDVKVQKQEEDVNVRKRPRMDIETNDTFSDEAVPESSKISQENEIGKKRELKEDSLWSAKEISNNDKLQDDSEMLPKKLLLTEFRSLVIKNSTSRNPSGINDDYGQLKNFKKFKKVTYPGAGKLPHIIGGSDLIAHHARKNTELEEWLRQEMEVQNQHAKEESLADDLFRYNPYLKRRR
# UniProt Q92878: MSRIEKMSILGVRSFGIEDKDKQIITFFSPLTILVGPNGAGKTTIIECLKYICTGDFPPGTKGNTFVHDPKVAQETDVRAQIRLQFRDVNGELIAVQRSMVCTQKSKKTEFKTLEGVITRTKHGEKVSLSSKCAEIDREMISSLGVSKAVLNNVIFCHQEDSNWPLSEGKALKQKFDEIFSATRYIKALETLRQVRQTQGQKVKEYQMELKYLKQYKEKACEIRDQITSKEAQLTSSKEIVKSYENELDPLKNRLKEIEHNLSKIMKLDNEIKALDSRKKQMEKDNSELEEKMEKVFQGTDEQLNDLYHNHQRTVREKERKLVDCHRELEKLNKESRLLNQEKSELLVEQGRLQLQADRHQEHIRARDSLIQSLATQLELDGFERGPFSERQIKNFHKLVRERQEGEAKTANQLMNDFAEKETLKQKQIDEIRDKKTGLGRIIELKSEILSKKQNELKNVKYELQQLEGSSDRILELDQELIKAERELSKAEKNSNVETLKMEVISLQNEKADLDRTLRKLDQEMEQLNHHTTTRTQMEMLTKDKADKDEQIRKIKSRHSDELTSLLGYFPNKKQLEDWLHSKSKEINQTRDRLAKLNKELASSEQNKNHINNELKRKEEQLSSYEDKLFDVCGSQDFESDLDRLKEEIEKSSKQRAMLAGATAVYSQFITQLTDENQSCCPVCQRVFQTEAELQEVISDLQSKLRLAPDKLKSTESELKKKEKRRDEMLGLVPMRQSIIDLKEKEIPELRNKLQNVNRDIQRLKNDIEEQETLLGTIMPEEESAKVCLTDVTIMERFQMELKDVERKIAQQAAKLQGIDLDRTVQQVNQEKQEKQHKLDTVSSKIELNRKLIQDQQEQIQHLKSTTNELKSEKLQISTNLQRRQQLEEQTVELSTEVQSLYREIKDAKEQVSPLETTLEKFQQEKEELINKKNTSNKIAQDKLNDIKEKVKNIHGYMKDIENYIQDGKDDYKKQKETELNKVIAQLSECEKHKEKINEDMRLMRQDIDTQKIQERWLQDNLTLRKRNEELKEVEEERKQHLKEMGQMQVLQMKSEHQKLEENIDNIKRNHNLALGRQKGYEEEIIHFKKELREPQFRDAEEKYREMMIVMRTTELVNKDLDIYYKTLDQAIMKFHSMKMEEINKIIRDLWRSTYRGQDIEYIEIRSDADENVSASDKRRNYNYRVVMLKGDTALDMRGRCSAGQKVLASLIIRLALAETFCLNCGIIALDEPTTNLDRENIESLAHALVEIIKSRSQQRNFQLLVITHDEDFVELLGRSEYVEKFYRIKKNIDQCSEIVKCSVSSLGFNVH
# These are yes or no findings as the source states them, for the method shown. Binding seen in cells or lysates may run through a third protein. Some entries that bind do so weakly or less than the wild type. For some of these results: Sequences can lack the tags named with a protein.
# How the values were obtained:
# [1] = target: T1, HA-MRE11 (UniProt P49959); assay: co-IP; HA-MRE11 precipitated with anti-HA magnetic beads from benzonase/RNase-digested chromatin fraction of T24 cells; with or without CB-5083 (10 uM) and IR (10 Gy); Western blot
# T1 sequence: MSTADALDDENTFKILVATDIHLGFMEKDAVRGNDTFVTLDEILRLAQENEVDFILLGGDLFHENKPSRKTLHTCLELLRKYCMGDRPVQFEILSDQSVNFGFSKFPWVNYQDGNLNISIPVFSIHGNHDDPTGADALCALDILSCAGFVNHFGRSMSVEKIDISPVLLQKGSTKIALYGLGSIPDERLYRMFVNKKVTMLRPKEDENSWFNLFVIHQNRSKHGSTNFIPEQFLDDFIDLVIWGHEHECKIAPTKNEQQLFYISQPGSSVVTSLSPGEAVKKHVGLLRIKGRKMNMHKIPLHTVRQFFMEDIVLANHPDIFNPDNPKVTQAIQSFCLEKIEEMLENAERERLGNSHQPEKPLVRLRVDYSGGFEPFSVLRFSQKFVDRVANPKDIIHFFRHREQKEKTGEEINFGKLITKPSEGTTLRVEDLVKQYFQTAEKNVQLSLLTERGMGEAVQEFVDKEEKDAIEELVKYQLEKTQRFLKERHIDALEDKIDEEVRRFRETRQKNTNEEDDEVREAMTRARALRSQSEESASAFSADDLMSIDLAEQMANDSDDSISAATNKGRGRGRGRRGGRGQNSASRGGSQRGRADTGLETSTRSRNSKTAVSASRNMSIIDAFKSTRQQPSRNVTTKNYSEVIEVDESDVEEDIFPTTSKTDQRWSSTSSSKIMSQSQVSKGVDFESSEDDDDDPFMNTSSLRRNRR
# [2] = target: p97 (endogenous, HEK293) (human (endogenous in HEK293)) (UniProt P55072); assay: co-IP; endogenous p97 precipitated with p97 antibody (Proteintech 10736-1-AP) and protein A magnetic beads from digested chromatin fraction of HEK293 cells; with or without IR (10 Gy); Western blot
# [3] = target: p97-E578Q-Strep (dominant-negative, substrate-trapping p97 variant) (UniProt P55072); assay: co-IP; DOX-induced p97-EQ-Strep isolated with MagStrep type3 XT beads from benzonase/RNase-digested chromatin fraction of HEK293 Flp-In cells; with or without IR (10 Gy); Western blot
Substance,binding [1],binding [2],binding [3]
"p97 (endogenous, T24) (from UniProt P55072 1-806) (enzyme)",binds,,
"NBS1 (endogenous, HEK293) (from UniProt O60934 1-754)",,binds,
"RAD50 (endogenous, HEK293) (from UniProt Q92878 1-1312)",,binds,binds
